No constants are given. Whether binding was seen depends on the method and setting. Binding seen in cells or lysates may run through a third protein. Some entries that bind do so weakly or less than the wild type.
Experiments:
FLAG-RPAP3 (human) = FLAG-RPAP3 (human) (UniProt Q9H6T3); test: co-IP; FLAG-tagged bait transfected in HeLa S3 cells; anti-FLAG M2 magnetic beads, CoIP buffer (250 mM NaCl, 0.5% NP-40), 2 h at 4 °C; western blot of endogenous proteins
FLAG-URI1 = FLAG-URI1 (UniProt O94763); test: as above

The chains behind the UniProt entries cited, without tags or fusion partners.
UniProt Q9H6T3: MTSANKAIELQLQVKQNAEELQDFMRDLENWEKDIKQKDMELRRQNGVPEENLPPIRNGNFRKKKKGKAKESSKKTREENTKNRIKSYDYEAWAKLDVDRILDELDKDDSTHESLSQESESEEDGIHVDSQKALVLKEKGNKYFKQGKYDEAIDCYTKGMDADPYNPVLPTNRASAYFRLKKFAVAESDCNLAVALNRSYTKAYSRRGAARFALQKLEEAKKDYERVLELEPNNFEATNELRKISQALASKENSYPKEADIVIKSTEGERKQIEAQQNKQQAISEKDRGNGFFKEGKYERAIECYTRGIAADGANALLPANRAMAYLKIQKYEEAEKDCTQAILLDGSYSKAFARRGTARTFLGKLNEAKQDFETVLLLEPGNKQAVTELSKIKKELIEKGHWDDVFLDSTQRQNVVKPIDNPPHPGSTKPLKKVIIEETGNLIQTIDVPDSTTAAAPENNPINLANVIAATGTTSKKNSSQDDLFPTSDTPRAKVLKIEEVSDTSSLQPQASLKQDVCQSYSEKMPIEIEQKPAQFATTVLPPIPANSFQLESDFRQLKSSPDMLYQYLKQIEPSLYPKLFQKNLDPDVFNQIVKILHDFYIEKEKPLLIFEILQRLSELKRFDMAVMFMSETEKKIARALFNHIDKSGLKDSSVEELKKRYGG
UniProt O94763: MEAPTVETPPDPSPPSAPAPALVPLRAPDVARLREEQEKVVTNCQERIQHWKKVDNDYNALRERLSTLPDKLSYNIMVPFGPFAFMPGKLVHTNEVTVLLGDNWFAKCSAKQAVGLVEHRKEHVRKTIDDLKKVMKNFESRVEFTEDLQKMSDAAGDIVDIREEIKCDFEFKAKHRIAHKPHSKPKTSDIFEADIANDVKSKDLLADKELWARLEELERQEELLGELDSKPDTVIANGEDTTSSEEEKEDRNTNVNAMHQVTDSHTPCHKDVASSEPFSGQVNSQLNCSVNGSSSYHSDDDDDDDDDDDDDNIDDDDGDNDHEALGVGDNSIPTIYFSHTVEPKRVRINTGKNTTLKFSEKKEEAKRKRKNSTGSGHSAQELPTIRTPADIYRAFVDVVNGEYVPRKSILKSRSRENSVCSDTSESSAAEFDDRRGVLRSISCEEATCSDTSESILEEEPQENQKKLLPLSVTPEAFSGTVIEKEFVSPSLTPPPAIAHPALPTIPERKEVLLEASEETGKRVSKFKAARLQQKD

B1: TSC1 (protein, UniProt Q92574 1-1164)
chain: MAQQANVGELLAMLDSPMLGVRDDVTAVFKENLNSDRGPMLVNTLVDYYLETSSQPALHILTTLQEPHDKHLLDRINEYVGKAATRLSILSLLGHVIRLQPSWKHKLSQAPLLPSLLKCLKMDTDVVVLTTGVLVLITMLPMIPQSGKQHLLDFFDIFGRLSSWCLKKPGHVAEVYLVHLHASVYALFHRLYGMYPCNFVSFLRSHYSMKENLETFEEVVKPMMEHVRIHPELVTGSKDHELDPRRWKRLETHDVVIECAKISLDPTEASYEDGYSVSHQISARFPHRSADVTTSPYADTQNSYGCATSTPYSTSRLMLLNMPGQLPQTLSSPSTRLITEPPQATLWSPSMVCGMTTPPTSPGNVPPDLSHPYSKVFGTTAGGKGTPLGTPATSPPPAPLCHSDDYVHISLPQATVTPPRKEERMDSARPCLHRQHHLLNDRGSEEPPGSKGSVTLSDLPGFLGDLASEEDSIEKDKEEAAISRELSEITTAEAEPVVPRGGFDSPFYRDSLPGSQRKTHSAASSSQGASVNPEPLHSSLDKLGPDTPKQAFTPIDLPCGSADESPAGDRECQTSLETSIFTPSPCKIPPPTRVGFGSGQPPPYDHLFEVALPKTAHHFVIRKTEELLKKAKGNTEEDGVPSTSPMEVLDRLIQQGADAHSKELNKLPLPSKSVDWTHFGGSPPSDEIRTLRDQLLLLHNQLLYERFKRQQHALRNRRLLRKVIKAAALEEHNAAMKDQLKLQEKDIQMWKVSLQKEQARYNQLQEQRDTMVTKLHSQIRQLQHDREEFYNQSQELQTKLEDCRNMIAELRIELKKANNKVCHTELLLSQVSQKLSNSESVQQQMEFLNRQLLVLGEVNELYLEQLQNKHSDTTKEVEMMKAAYRKELEKNRSHVLQQTQRLDTSQKRILELESHLAKKDHLLLEQKKYLEDVKLQARGQLQAAESRYEAQKRITQVFELEILDLYGRLEKDGLLKKLEEEKAEAAEAAEERLDCCNDGCSDSMVGHNEEASGHNGETKTPRPSSARGSSGSRGGGGSSSSSSELSTPEKPPHQRAGPFSSRWETTMGEASASIPTTVGSLPSSKSFLGMKARELFRNKSESQCDEDGMTSSLSESLKTELGKDLGVEAKIPLNLDGPHPSPPTPDSVGQLHIMDYNETHHEHS
Question: Which binding (FLAG-RPAP3 (human)) does the source give for B1 here?
Answer: The binding was “binds”.

Question: And the binding (FLAG-URI1)?
Answer: Its binding is “binds”.

From publication PMC5460035 (Nature Communications, 2017)
